These are yes or no findings as the source states them, for the method shown. Binding seen in cells or lysates may run through a third protein. Binding can be weak; no strength is given. Sequences can lack the tags named with a protein.
Assays:
Assay in all cases: co-IP; FLAG-tagged NPHP1 variants co-transfected with GFP-NPHP2 or GFP-NPHP5 in 293T/17 cells (NPHP8 endogenous); protein extracts immunoprecipitated with anti-FLAG M2 magnetic beads; immunoblotting; empty pCS2FLAG vector as control
[1] = molecular target: FLAG-tagged NPHP1 aa242-685 (mouse)
[2] = molecular target: FLAG-tagged NPHP1 (full-length) (mouse)
[3] = molecular target: FLAG-tagged NPHP1 Δ(49–110) (mouse)

Measured: binding

B1: GFP-tagged NPHP2 (protein, UniProt Q9Y283 1-1065)
chain: MNKSENLLFAGSSLASQVHAAAVNGDKGALQRLIVGNSALKDKEDQFGRTPLMYCVLADRLDCADALLKAGADVNKTDHSQRTALHLAAQKGNYRFMKLLLTRRANWMQKDLEEMTPLHLTTRHRSPKCLALLLKFMAPGEVDTQDKNKQTALHWSAYYNNPEHVKLLIKHDSNIGIPDVEGKIPLHWAANHKDPSAVHTVRCILDAAPTESLLNWQDYEGRTPLHFAVADGNVTVVDVLTSYESCNITSYDNLFRTPLHWAALLGHAQIVHLLLERNKSGTIPSDSQGATPLHYAAQSNFAETVKVFLKHPSVKDDSDLEGRTSFMWAAGKGSDDVLRTMLSLKSDIDINMADKYGGTALHAAALSGHVSTVKLLLENNAQVDATDVMKHTPLFRACEMGHKDVIQTLIKGGARVDLVDQDGHSLLHWAALGGNADVCQILIENKINPNVQDYAGRTPLQCAAYGGYINCMAVLMENNADPNIQDKEGRTALHWSCNNGYLDAIKLLLDFAAFPNQMENNEERYTPLDYALLGERHEVIQFMLEHGALSIAAIQDIAAFKIQAVYKGYKVRKAFRDRKNLLMKHEQLRKDAAAKKREEENKRKEAEQQKGRRSPDSCRPQALPCLPSTQDVPSRQSRAPSKQPPAGNVAQGPEPRDSRGSPGGSLGGALQKEQHVSSDLQGTNSRRPNETAREHSKGQSACVHFRPNEGSDGSRHPGVPSVEKSRGETAGDERCAKGKGFVKQPSCIRVAGPDEKGEDSRRAAASLPPHDSHWKPSRRHDTEPKAKCAPQKRRTQELRGGRCSPAGSSRPGSARGEAVHAGQNPPHHRTPRNKVTQAKLTGGLYSHLPQSTEELRSGARRLETSTLSEDFQVSKETDPAPGPLSGQSVNIDLLPVELRLQIIQRERRRKELFRKKNKAAAVIQRAWRSYQLRKHLSHLRHMKQLGAGDVDRWRQESTALLLQVWRKELELKFPQTTAVSKAPKSPSKGTSGTKSTKHSVLKQIYGCSHEGKIHHPTRSVKASSVLRLNSVSNLQCIHLLENSGRSKNFSYNLQSATQPKNKTKP
binds: [1] | [2] | [3]

B2: GFP-tagged NPHP5 (protein, UniProt Q15051 1-598)
chain: MKPTGTDPRILSIAAEVAKSPEQNVPVILLKLKEIINITPLGSSELKKIKQDIYCYDLIQYCLLVLSQDYSRIQGGWTTISQLTQILSHCCVGLEPGEDAEEFYNELLPSAAENFLVLGRQLQTCFINAAKAEEKDELLHFFQIVTDSLFWLLGGHVELIQNVLQSDHFLHLLQADNVQIGSAVMMMLQNILQINSGDLLRIGRKALYSILDEVIFKLFSTPSPVIRSTATKLLLLMAESHQEILILLRQSTCYKGLRRLLSKQETGTEFSQELRQLVGLLSPMVYQEVEEQKLHQAACLIQAYWKGFQTRKRLKKLPSAVIALQRSFRSKRSKMLLEINRQKEEEDLKLQLQLQRQRAMRLSRELQLSMLEIVHPGQVEKHYREMEEKSALIIQKHWRGYRERKNFHQQRQSLIEYKAAVTLQRAALKFLAKCRKKKKLFAPWRGLQELTDARRVELKKRVDDYVRRHLGSPMSDVVSRELHAQAQERLQHYFMGRALEERAQQHREALIAQISTNVEQLMKAPSLKEAEGKEPELFLSRSRPVAAKAKQAHLTTLKHIQAPWWKKLGEESGDEIDVPKDELSIELENLFIGGTKPP
binds: [1] | [2] | [3]

— paper PMC8104407
